Reference: article PMC8202955, “The nonreceptor tyrosine kinase SRMS inhibits autophagy and promotes tumor growth by phosphorylating the scaffolding protein FKBP51” (PLoS Biology, 2021)
These are yes or no findings as the source states them, for the method shown. In cells and extracts the contact can be indirect. Some binding calls cover weakened binding; strength is not graded here. For some of these results: Where a sequence is shown, tags or fusion partners need not be part of it.

Amino acid sequences for entries named in this document (tags omitted). A change or cut given only in a name is not applied to a line headed by its entry. Residues count along the entry.
UniProt Q9H3Y6: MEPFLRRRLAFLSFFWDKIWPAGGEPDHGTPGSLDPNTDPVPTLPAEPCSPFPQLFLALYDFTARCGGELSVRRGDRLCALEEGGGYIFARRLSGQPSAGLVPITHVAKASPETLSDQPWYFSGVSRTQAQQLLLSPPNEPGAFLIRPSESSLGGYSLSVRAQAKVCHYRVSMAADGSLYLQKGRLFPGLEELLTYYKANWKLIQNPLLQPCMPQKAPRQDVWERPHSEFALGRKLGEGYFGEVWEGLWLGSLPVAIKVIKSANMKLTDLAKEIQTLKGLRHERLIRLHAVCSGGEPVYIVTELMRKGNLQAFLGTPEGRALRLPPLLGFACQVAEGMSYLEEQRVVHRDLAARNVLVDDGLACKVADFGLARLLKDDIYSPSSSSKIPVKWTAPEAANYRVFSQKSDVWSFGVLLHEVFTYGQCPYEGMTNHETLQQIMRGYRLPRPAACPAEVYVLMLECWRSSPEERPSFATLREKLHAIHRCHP
Myc-SRMS amino acids 213-488: residues 213-488 of Q9H3Y6
UniProt O60346: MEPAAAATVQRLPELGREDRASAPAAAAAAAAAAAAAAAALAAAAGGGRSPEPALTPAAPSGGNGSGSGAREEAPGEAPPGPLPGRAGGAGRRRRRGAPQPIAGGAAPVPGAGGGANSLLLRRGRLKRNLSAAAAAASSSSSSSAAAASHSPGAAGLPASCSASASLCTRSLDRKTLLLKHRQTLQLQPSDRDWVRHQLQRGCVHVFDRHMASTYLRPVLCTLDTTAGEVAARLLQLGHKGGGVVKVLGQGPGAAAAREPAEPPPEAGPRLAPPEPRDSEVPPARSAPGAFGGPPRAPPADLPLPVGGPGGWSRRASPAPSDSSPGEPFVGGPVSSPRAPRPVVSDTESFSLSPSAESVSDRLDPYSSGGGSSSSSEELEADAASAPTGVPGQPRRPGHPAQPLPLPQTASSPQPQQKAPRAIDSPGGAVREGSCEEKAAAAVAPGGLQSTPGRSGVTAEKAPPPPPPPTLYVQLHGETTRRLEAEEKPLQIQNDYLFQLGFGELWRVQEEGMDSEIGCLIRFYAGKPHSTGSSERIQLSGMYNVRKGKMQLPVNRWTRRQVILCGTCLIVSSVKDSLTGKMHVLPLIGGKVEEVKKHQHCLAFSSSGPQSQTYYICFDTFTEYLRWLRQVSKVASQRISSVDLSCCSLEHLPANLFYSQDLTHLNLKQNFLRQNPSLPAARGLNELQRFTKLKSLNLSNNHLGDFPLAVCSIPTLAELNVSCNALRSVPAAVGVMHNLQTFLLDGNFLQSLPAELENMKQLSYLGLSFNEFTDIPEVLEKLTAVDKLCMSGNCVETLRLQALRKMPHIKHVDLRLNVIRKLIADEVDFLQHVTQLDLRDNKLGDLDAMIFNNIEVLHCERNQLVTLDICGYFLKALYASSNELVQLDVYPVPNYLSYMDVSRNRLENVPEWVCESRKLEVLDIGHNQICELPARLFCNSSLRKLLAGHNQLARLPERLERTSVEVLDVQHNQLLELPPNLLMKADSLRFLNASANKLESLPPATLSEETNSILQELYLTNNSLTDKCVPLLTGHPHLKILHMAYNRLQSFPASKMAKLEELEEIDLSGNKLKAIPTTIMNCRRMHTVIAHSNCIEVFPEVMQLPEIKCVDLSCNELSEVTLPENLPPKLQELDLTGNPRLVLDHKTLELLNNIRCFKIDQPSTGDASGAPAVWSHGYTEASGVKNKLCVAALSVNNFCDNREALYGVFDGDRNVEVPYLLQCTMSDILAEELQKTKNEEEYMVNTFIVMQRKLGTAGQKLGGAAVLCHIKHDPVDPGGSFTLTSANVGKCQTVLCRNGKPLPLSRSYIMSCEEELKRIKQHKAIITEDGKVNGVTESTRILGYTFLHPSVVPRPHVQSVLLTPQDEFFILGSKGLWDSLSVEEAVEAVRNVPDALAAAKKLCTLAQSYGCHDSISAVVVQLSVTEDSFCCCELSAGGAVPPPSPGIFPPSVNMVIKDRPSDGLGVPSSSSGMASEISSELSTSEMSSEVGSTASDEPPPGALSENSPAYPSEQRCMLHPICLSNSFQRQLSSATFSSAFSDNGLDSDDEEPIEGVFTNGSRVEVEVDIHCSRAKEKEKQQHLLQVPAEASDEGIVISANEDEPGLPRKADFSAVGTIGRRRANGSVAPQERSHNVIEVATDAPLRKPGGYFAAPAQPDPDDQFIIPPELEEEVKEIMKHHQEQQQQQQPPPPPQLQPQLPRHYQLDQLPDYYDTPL
UniProt P31749: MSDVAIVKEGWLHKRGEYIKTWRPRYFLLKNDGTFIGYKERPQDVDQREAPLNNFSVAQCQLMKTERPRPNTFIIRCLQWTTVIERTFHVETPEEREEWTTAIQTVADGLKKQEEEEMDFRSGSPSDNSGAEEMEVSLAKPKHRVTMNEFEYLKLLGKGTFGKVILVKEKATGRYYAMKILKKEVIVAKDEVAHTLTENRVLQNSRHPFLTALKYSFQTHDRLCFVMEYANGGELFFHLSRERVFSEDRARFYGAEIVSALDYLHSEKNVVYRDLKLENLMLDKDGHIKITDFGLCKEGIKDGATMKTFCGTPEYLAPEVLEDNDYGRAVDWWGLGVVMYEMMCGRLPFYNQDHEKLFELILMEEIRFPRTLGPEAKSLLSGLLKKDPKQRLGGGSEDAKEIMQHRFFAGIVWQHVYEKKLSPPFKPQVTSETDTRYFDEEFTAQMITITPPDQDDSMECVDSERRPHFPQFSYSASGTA

Legend:
[1] = target: T1, Flag-FKBP51 (UniProt Q13451); assay: co-IP; FKBP51 transfected with PHLPP, with or without SRMS, in 293T cells; IP by anti-Flag, western blot
T1 sequence: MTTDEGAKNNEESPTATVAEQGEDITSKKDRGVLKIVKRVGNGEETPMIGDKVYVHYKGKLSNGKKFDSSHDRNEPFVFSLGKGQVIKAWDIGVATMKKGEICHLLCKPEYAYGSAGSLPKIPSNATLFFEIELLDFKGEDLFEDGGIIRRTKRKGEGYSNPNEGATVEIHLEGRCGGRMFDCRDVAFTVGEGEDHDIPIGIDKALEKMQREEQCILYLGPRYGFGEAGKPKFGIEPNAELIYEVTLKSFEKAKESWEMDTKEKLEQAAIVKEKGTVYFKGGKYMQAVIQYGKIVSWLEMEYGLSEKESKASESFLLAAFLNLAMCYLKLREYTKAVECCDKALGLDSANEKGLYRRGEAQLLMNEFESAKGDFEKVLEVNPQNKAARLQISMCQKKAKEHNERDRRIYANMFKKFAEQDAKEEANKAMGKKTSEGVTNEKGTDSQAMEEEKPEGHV

[2] = target: T2, FK506-binding protein 51 (endogenous) (human (endogenous in HEK293, MDA-MB-231, U2OS)) (UniProt Q13451); assay: co-IP; endogenous proteins of MDA-MB-231 lysates; IP with anti-SRMS, anti-FKBP51 or anti-Beclin 1, western blot; parental vs SRMS knockout cells, DMSO vs 0.5 uM ibrutinib for 4 h
T2 sequence: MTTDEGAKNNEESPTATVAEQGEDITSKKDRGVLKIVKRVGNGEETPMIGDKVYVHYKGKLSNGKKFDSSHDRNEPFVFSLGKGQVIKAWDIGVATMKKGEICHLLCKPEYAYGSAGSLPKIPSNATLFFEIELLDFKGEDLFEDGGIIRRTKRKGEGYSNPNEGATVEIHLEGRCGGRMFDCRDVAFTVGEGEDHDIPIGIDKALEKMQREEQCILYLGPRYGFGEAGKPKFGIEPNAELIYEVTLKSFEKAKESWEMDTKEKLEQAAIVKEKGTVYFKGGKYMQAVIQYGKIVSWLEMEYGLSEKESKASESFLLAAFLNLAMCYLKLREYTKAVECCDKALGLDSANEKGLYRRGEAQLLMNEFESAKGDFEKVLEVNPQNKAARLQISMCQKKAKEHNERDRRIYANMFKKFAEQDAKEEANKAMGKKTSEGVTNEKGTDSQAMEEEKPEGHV

[3] = target: T2, FK506-binding protein 51 (endogenous) (human (endogenous in HEK293, MDA-MB-231, U2OS)); assay: co-IP; endogenous proteins of SRMS knockout U2OS cells expressing WT SRMS or SRMS(K258A); IP with anti-FKBP51 or IgG control, western blot
[4] = target: Myc-SRMS amino acids 213-488 (human) (UniProt Q9H3Y6); assay: co-IP; truncated Myc-SRMS constructs co-transfected with Flag-FKBP51 in HEK293FT cells; IP with anti-Myc, western blot
[5] = target: Myc-SRMS K258A (human) (UniProt Q9H3Y6); assay: co-IP; Flag-FKBP51 co-transfected with Myc-SRMS or Myc-SRMS K258A in HeLa cells; IP by anti-Myc, western blot; lysis in 50 mM Tris-HCl pH 8.0, 150 mM NaCl, 0.5% NP-40

For “PHLPP1 (ectopic) (from UniProt O60346 1-1717) (enzyme)”, the binding [1] was “binds”.

“AKT1 (endogenous) (from UniProt P31749 1-480) (enzyme)” was tested, and the binding [2] was “binds” and the binding [3] was “binds”.

In the case of “PHLPP1 (endogenous) (from UniProt O60346 1-1717) (enzyme)”, the binding [2] is reported as “binds” and the binding [3] is reported as “binds”.

B1: Flag-FKBP51 (protein, UniProt Q13451 1-457)
chain: MTTDEGAKNNEESPTATVAEQGEDITSKKDRGVLKIVKRVGNGEETPMIGDKVYVHYKGKLSNGKKFDSSHDRNEPFVFSLGKGQVIKAWDIGVATMKKGEICHLLCKPEYAYGSAGSLPKIPSNATLFFEIELLDFKGEDLFEDGGIIRRTKRKGEGYSNPNEGATVEIHLEGRCGGRMFDCRDVAFTVGEGEDHDIPIGIDKALEKMQREEQCILYLGPRYGFGEAGKPKFGIEPNAELIYEVTLKSFEKAKESWEMDTKEKLEQAAIVKEKGTVYFKGGKYMQAVIQYGKIVSWLEMEYGLSEKESKASESFLLAAFLNLAMCYLKLREYTKAVECCDKALGLDSANEKGLYRRGEAQLLMNEFESAKGDFEKVLEVNPQNKAARLQISMCQKKAKEHNERDRRIYANMFKKFAEQDAKEEANKAMGKKTSEGVTNEKGTDSQAMEEEKPEGHV
In the case of B1, the binding [4] is reported as “binds” and the binding [5] is reported as “binds”.
